Source: PubChem BioAssay AID2685 (National Center for Advancing Translational Sciences (NCATS), 2010)
The other results are listed elsewhere or left out. These are further read-outs of the screen, such as a control signal, another cell line or another target. No call is given for them. Most of these compounds were active or inconclusive in the main read-out, so they are no random draw. Words in brackets tell the shape of the fitted curve; partial curves, single points and poor fits give uncertain potencies.

Test: qHTS Assay for Lipid Storage Modulators in Drosophila S3 Cells;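 for cell number change: cells counted by Cell Tracker Red CMTPX staining in the red channel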
Settings: BODIPY lipid droplet fluorescence, 18-24 h; for cell number change: measured here: cell count max response, cells fed with added oleic acid
How it was run: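 Laser-scanning cytometry quantifies lipid droplet accumulation (500–530 nm total intensity; droplet/cell object ratio) in oleic acid-fed (400 uM added) Drosophila S3 cells treated with a concentration series. 20 uM Triacsin C defined 100% inhibition.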

[1] = measured here: cell number channel AC50, cells fed with added oleic acid
[2] = measured here: lipid fluorescence (Fed channel) AC50, cells fed with added oleic acid

Row | Structure (SMILES) | cell number change | AC50 [1] | AC50 [2]
1 | O=C(NCCC1=CCCCC1)C1CCN(c2nnc(-n3cccc3)s2)CC1 | -89% | 11.6 µM [falling, partial curve] | 16.4 µM [falling, partial curve]
2 | Cc1ccc(N=C2SCCCN2C(=O)C2=COCCO2)cc1Cl | 3.12% | 2.31 µM [falling, single point] | 1.64 µM [falling, partial curve]
3 | CC1(NC(=O)c2ccccc2)CCN(CCc2cccs2)C1=O (stereo not given) | -3.84% |  | 
4 | CCN(CC)C(=S)SCC(=O)Nc1nc(=O)c2ccccc2s1 | -1.08% |  | 3.26 µM [rising, partial curve, poor fit]
5 | O=C(c1ccccc1)c1ccc(-n2cnnc2)c([N+](=O)[O-])c1 | 9.27% |  | 0.0058 µM [falling, full curve, poor fit]
6 | COc1ccc(NC(=O)NNC(=O)c2cc(C3CC3)nc3ccccc23)c(OC)c1 | -25.2% |  | 29.1 µM [rising, partial curve, poor fit]
7 | O=C(O)c1ccc(CN2C(=O)c3ccc(Oc4ccc([N+](=O)[O-])cc4)cc3C2=O)cc1 | -11.9% |  | 16.4 µM [falling, partial curve, poor fit]
8 | COc1cc(CN(C)Cc2cc(=O)oc3cc(C)c(Cl)cc23)ccc1OC(F)F | 24.4% |  | 7.31 µM [falling, single point]
9 | Cc1ccc2cc(CN(C(=O)c3cccs3)c3ccccc3)c(=O)[nH]c2c1 | 2.22% |  | 
10 | COCCNc1nc(-c2ccccc2)nc2c1oc1ccccc12 | 56.2% | 0.82 µM [rising, full curve] | 14.6 µM [rising, partial curve]
11 | COc1cccc(NC(=S)NCCN2CCOCC2)c1 | -8.06% |  | 0.231 µM [falling, full curve, poor fit]
12 | CC(=O)c1cnc2nc(C)nn2c1C | 2.79% |  | 0.0058 µM [rising, full curve]
13 | CCOC(=O)c1cnc2cc(C)ccn2c1=O | 4.34% |  | 6.51 µM [rising, partial curve, poor fit]
14 | Cc1ccc(NC(=O)Nn2cnnc2)cc1 |  |  | 0.58 µM [rising, single point]
15 | Cc1cnn(CCC(=O)NNC(=S)NCC(C)C)c1 | 1.57% |  | 
16 | CCn1c(C)c2c([n+]1CC)CC(C)(C)CC2=O | 0.95% |  | 18.4 µM [falling, single point]
17 | COc1ccc(N(CC(=O)NC(C)c2ccccc2)S(=O)(=O)c2ccc(C)cc2)cc1 (stereo not given) | -5.26% |  | 35.5 µM [falling, single point]
18 | CC(C)CCNC(=O)CNC(=O)c1cccs1 | -6.37% |  | 
19 | COc1cccc(-c2nn(C)c3sc(C(=O)N4CCN(c5ccccc5)CC4)cc23)c1 | -16% |  | 0.517 µM [rising, full curve]
20 | CCc1nc2ccc(C(=O)Nc3ccc(NC(C)=O)cc3)cc2nc1CC | 5.03% |  | 0.13 µM [rising, full curve, poor fit]
21 | CCOC(=O)Cc1csc(NC(=O)CSc2nnc(-n3nc(C)cc3C)c3ccccc23)n1 |  | 0.146 µM [falling, single point] | 

Row | Structure (SMILES) | cell number change | AC50 [1] | AC50 [2]
22 | CCOc1ccc(NC(=O)CCc2c(C)nn(-c3ccc(N4CCCCC4)nn3)c2C)cc1 | -30.4% | 0.326 µM [falling, full curve, poor fit] | 
23 | Nc1cc(N)nc(SCc2cc(=O)oc3cc4c(cc23)CCC4)n1 | 19.5% |  | 2.06 µM [rising, partial curve]
24 | Cc1c(C=O)c(Cl)n(C)c(=O)c1C#N | -91.5% |  | 
25 | COc1cc(C(=O)NCC2CCCO2)ccc1OCc1ccccc1 (stereo not given) | 23.1% |  | 
26 | CCN(CC(=O)Nc1ccc(NC(C)=O)cc1)C(=O)CCCc1c[nH]c2ccccc12 | -65.7% | 10.3 µM [falling, partial curve] | 0.103 µM [falling, full curve, poor fit]
27 | CC1(C)CC(=O)c2ccc(O)cc2O1 | -51% | 0.116 µM [falling, full curve, poor fit] | 16.4 µM [falling, single point]
28 | COC(=O)c1ccccc1NC(=O)Cn1c(SC)c(F)cnc1=O | -15.2% |  | 6.51 µM [falling, single point]
29 | COc1cccc(NC(=O)COc2ccc(C(=S)N3CCN(C)CC3)cc2OC)c1 |  |  | 7.31 µM [falling, partial curve]
30 | Cc1c(NC(=O)CN2CCCc3ccccc32)c(=O)n(-c2ccccc2)n1C | -20.9% |  | 13 µM [rising, partial curve]
31 | CCO/C=N/Nc1nc(C(F)(F)F)nc2c1cnn2Cc1ccccc1 | -39.3% | 18.4 µM [falling, single point] | 29.1 µM [falling, single point]
32 | O=C(NCCN1CCOCC1)Nc1ccccc1 | -23.2% |  | 18.4 µM [falling, single point]
33 | Cc1ccsc1/C=N/n1c(-c2ccccc2)n[nH]c1=S | -66.7% | 0.651 µM [falling, full curve, poor fit] | 
34 | COc1ccc2nc(N3CCCC3)c(C#N)cc2c1 |  | 6.51 µM [rising, single point] | 2.31 µM [rising, partial curve]
35 | O=C(CSc1nccn(-c2ccc(Br)cc2)c1=O)NC1CCCC1 |  | 3.66 µM [rising, partial curve, poor fit] | 
36 | COc1ccc(/C=N/NC(=O)c2[nH]c3ccc(Br)cc3c2-c2ccccc2)cc1 |  | 0.82 µM [falling, full curve, poor fit] | 
37 | Cc1ccc(S(=O)(=O)N2CCN(C(=O)C3CCN(C(=O)c4ccc(F)cc4)CC3)CC2)c(C)c1 | 60.2% | 9.2 µM [rising, partial curve] | 
38 | NC(=O)CN1C(=O)C(=O)N(Cc2cccc(Cl)c2)C1=O | 22.6% |  | 10.3 µM [rising, partial curve]
39 | Cc1cc(SCc2ccccc2Cl)nc(=O)[nH]1 | 32% | 3.66 µM [rising, full curve] | 
40 | CN(C)C(CNC(=O)c1ccc(NS(=O)(=O)c2cccc([N+](=O)[O-])c2)cc1)c1ccco1 (stereo not given) | -22.3% |  | 25.9 µM [falling, single point]
41 | Cn1c(SCC(=O)c2ccc3c(c2)OCO3)nnc1C1COc2ccccc2O1 (stereo not given) |  | 0.517 µM [rising, full curve] | 
42 | O=C(Cc1ccc(Cl)cc1)NCCc1cnc[nH]1 | 6.38% |  | 29.1 µM [falling, single point]

Row | Structure (SMILES) | cell number change | AC50 [1] | AC50 [2]
43 | CCOC(=O)c1ccc(NC(=O)NNS(=O)(=O)c2cc(OC)ccc2OC)cc1 | -37.3% | 8.2 µM [falling, partial curve] | 
44 | CCC(C(=O)OC(C)C(=O)Nc1ccc(Cl)cn1)c1ccccc1 (stereo not given) | -4.19% |  | 
45 | Cn1c(SCC(=O)Nc2ncc(C(F)(F)F)cc2Cl)nnc1-c1ccc(Cl)cc1 |  | 1.16 µM [rising, full curve] | 
46 | CCOC(=O)C1=C(C)Nc2ccccc2N=C1NC(=O)C(c1ccccc1)c1ccccc1 | 18.5% | 3.26 µM [falling, partial curve] | 13 µM [falling, partial curve]
47 | O=C(CSc1nnc(Nc2ccccc2)s1)NCCN1C(=O)CSC1=O | -15.4% |  | 20.6 µM [falling, partial curve]
48 | CCCCNC(=S)N(C)/N=C/c1sc(N2CCCCC2)nc1-c1cccs1 | -57.3% | 23.1 µM [falling, partial curve] | 2.59 µM [falling, full curve, poor fit]
49 | Cc1nn(CCc2nn[nH]n2)c2nc(C(F)(F)F)cc(C(F)(F)F)c12 | -14.3% |  | 
50 | C(=N\n1cnnc1)/c1ccccc1OCCOc1ccccc1 | -11.4% |  | 0.103 µM [rising, full curve, poor fit]
51 | Cc1ccc2c(COC(=O)c3n[nH]c4ccccc34)cc(=O)oc2c1 | -12.6% |  | 
52 | COc1cc2c(cc1OC)C(c1cc3cccc(C)c3[nH]c1=O)N(C(=O)c1ccco1)CC2 (stereo not given) | 7.69% |  | 
53 | CCC1(CC)NC(=O)N(CC(=O)OCC(=O)NC(=O)c2ccccc2OC)C1=O | -12% | 0.00517 µM [falling, full curve, poor fit] | 
54 | Cc1cccc(NC(=O)CSc2nc3ccccc3nc2N2CCCC2)c1 | 12.7% |  | 
55 | Cc1ccc(N2C(=O)CS(=O)(=O)CC2=O)cc1 | -24.6% |  | 
56 | O=C(CSc1nnc(NC(=O)c2ccco2)s1)NCc1ccc2c(c1)OCO2 | 13% | 0.231 µM [rising, partial curve, poor fit] | 1.16 µM [rising, single point]
57 | COc1cccc(N(CC(=O)NCCSCc2ccc(C)cc2)S(C)(=O)=O)c1 | -32.6% | 20.6 µM [falling, single point] | 29.1 µM [falling, single point]
58 | CCOC(=O)Cn1c(-c2cccnc2Cl)nc2cc(Cl)c(Cl)cc21 | 27.2% | 0.651 µM [rising, full curve, poor fit] | 6.51 µM [rising, partial curve, poor fit]
59 | CCN(c1ccccc1)c1nc2ccsc2c(=O)s1 |  |  | 0.58 µM [falling, single point]
60 | CC1(C)CC(N2CCN(C(c3ccccc3)c3ccccc3)CC2)=CC(=[N+]2CCCCC2)C1 |  |  | 1.84 µM [falling, full curve]
61 | CCN1/C(=C/c2ccc3cc(C)cc(C)c3[n+]2CC)Sc2cc(C)ccc21 | -60.5% | 7.31 µM [falling, partial curve] | 
62 | CC(C)c1ccc(CN2CC(C(=O)O)CC2=O)cc1 (stereo not given) | -45.4% | 29.1 µM [falling, single point] | 29.1 µM [falling, single point]

Shown with each value named: part of the list above
COc1cc2c(cc1OC)C(c1cc3cccc(C)c3[nH]c1=O)N(C(=O)c1ccco1)CC2 (stereo not given)
  cell number change: 7.69%
CCC1(CC)NC(=O)N(CC(=O)OCC(=O)NC(=O)c2ccccc2OC)C1=O
  cell number change: -12%
  AC50 [1]: 0.00517 µM [falling, full curve, poor fit]
Cc1cccc(NC(=O)CSc2nc3ccccc3nc2N2CCCC2)c1
  cell number change: 12.7%
Cc1ccc(N2C(=O)CS(=O)(=O)CC2=O)cc1
  cell number change: -24.6%
